Among the data in publication PMC5705821 are binding values, retold here.

The chains behind the UniProt entries cited, without tags or fusion partners. Residues count along the entry.
UniProt P19338: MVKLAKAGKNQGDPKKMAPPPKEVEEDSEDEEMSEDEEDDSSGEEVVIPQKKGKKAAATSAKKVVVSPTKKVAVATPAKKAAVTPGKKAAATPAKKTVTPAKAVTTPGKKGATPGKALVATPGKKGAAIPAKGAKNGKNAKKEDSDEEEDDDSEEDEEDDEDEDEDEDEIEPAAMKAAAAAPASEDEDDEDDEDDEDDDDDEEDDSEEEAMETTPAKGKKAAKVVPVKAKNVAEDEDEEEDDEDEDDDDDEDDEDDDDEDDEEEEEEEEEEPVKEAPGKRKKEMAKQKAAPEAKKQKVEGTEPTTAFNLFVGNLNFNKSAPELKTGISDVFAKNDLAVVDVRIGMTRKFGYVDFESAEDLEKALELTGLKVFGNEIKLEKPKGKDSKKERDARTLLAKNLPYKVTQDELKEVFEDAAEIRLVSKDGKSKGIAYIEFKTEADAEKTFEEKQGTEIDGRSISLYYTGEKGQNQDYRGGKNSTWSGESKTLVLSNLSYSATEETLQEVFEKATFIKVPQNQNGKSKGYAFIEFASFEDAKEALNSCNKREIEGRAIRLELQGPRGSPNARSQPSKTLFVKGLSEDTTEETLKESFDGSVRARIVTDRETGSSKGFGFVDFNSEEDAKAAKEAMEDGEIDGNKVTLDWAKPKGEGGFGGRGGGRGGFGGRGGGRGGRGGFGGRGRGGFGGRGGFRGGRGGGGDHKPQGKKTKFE
UniProt P06748: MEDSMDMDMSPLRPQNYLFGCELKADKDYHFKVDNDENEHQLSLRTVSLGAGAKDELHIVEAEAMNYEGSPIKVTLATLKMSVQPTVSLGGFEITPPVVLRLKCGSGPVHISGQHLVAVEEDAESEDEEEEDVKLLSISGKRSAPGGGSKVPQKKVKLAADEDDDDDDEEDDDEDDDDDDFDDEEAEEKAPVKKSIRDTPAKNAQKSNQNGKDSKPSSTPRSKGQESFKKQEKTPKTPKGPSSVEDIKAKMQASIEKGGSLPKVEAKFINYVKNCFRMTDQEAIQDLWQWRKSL
UniProt P02545, residues 1-646: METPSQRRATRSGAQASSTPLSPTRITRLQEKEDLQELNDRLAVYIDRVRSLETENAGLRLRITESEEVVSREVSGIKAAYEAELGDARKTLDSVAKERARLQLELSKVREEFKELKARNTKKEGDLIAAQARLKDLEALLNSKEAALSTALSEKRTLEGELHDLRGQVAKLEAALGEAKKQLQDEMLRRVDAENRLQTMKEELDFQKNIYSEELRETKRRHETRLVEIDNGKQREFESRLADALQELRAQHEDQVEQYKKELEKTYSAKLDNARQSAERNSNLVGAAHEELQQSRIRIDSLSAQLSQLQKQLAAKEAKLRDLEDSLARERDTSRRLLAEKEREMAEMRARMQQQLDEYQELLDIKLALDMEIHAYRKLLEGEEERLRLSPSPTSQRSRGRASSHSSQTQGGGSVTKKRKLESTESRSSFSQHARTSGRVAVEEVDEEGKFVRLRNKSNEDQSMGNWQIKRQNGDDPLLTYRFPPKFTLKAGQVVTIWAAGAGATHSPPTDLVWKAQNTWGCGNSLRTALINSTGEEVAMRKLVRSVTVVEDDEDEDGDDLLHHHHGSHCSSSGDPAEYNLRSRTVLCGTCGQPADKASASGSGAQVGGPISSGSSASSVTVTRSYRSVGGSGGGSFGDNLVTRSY
UniProt P20700: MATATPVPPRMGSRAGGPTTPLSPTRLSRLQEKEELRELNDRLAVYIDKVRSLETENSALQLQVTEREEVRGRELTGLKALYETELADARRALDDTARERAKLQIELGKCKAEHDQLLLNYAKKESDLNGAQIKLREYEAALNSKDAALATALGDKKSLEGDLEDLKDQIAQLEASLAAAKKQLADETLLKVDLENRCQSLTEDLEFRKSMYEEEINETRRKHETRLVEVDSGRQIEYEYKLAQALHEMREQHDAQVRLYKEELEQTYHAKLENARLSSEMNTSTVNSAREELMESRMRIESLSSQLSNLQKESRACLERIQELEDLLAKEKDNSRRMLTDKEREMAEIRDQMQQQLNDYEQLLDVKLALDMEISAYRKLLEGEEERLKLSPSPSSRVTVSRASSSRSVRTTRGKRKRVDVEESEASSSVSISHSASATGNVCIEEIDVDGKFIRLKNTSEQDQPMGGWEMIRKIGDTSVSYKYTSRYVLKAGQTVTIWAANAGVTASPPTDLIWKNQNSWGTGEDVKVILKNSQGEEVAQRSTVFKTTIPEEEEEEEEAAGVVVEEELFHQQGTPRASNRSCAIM

Assay [1] addresses nucleolin (human (endogenous in DLD-1)) (UniProt P19338). Briefly: co-IP; whole-cell extracts of ~10^7 DLD-1 cells in co-IP lysis buffer (50 mM Tris pH 7.4, 150 mM NaCl, 0.5% NP-40, 1x PIC); 2 ug antinucleolin or antinucleophosmin antibody or normal rabbit IgG overnight at 4°C; protein A Dynabeads; 6 washes; immunoblot.
Assay [2] addresses nucleophosmin (human (endogenous in DLD-1)) (UniProt P06748). The assay is described as above.

These are yes or no findings as the source states them, for the method shown. Binding seen in cells or lysates may run through a third protein. Some entries that bind do so weakly or less than the wild type.

For lamin A/C (from UniProt P02545 1-646), the binding result in assay [1] was “no binding”.
Consider lamin B1 (from UniProt P20700 1-586), for which the binding result in assay [1] is listed as “no binding”.

B1: lamin B2 (protein, UniProt Q03252 1-620)
chain: MSPPSPGRRREQRRPRAAATMATPLPGRAGGPATPLSPTRLSRLQEKEELRELNDRLAHYIDRVRALELENDRLLLKISEKEEVTTREVSGIKALYESELADARRVLDETARERARLQIEIGKLRAELDEVNKSAKKREGELTVAQGRVKDLESLFHRSEVELAAALSDKRGLESDVAELRAQLAKAEDGHAVAKKQLEKETLMRVDLENRCQSLQEELDFRKSVFEEEVRETRRRHERRLVEVDSSRQQEYDFKMAQALEELRSQHDEQVRLYKLELEQTYQAKLDSAKLSSDQNDKAASAAREELKEARMRLESLSYQLSGLQKQASAAEDRIRELEEAMAGERDKFRKMLDAKEQEMTEMRDVMQQQLAEYQELLDVKLALDMEINAYRKLLEGEEERLKLSPSPSSRVTVSRATSSSSGSLSATGRLGRSKRKRLEVEEPLGSGPSVLGTGTGGSGGFHLAQQASASGSVSIEEIDLEGKFVQLKNNSDKDQSLGNWRIKRQVLEGEEIAYKFTPKYILRAGQMVTVWAAGAGVAHSPPSTLVWKGQSSWGTGESFRTVLVNADGEEVAMRTVKKSSVMRENENGEEEEEEAEFGEEDLFHQQGDPRTTSRGCYVM
For the molecule B1, the binding entry in assay [1] and in assay [2] was “binds” in each case.
